# Experimental data reported in PubChem BioAssay AID493014 (National Center for Advancing Translational Sciences (NCATS), 2011).
# This is one part of the list. The main result of the screen is listed elsewhere. These columns were measured beside it and carry no call. Compounds called inactive in the main read-out are mostly missing here. Potencies come from curve fits of mixed quality, noted in brackets.
# Test: qHTS Assay to Find Inhibitors of Chronic Active B-Cell Receptor Signaling
# Settings: ABC-DLBCL IkBa-CBG/CBR reporter, luminescence ratio (green luciferase fused to IkBa over red control in TMD8 lymphoma cells), 4 h
# In short: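 Compounds up to 46 uM were incubated four hours with TMD8 cells whose green CBG68 luciferase is fused to IkappaBalpha; red CBR luminescence normalised the signal, and concentration-effect curves were fitted to fusion, red and ratio data.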
# [1] = measured here: CBR red luminescence, cell number
# [2] = measured here: IkBa-CBG green luminescence
Compound,AC50 [1],AC50 [2]
Cc1nc2ccc(NC(=O)c3sccc3C)cc2s1,"7.94 µM [falling, partial curve]",
CCOC(=O)N1CCN(c2cc(NCCC(=O)O)c3c4c(onc24)-c2ccccc2C3=O)CC1,"20.6 µM [falling, single point]",
O=C(c1cccc(F)c1)n1nnc2ccccc21,"0.731 µM [rising, full curve, poor fit]",
CC(C)=C1C2CCC1C(C(=O)NCCc1ccccc1)C2C(=O)O (centres undefined),"18.4 µM [rising, single point]",
O=C(CCN1C(=O)/C(=C/C=C/c2ccccc2)SC1=S)Nc1ccccn1,"0.794 µM [falling, full curve]",
Cc1c(NC(=O)c2c(N)n(-c3ccccc3)c3nc4ccccc4nc23)c(=O)n(-c2ccccc2)n1C,"4.11 µM [rising, single point]",
Cc1ccc(CC(=O)Nc2ccc3c(c2)N(C)C(=O)c2ccccc2S3)cc1,"22.4 µM [falling, single point]",
CCCCCc1nnc(NC(=O)OCCC)s1,"4.61 µM [rising, full curve, poor fit]",
O=C(c1ccc(Cl)cc1)C(CN1CCCCC1)c1ccccc1 (centres undefined),"22.4 µM [falling, single point]",
COC(=O)c1ccc(OCC(=O)c2ccc(C)c(C)c2)cc1,"0.146 µM [falling, full curve, poor fit]",
O=C(Nc1nccs1)c1ccc(-c2ccc(Cl)cc2Cl)o1,,"3.66 µM [rising, full curve, poor fit]"
Cc1ccsc1C(=O)OCC(=O)Nc1sccc1C(N)=O,"2.82 µM [falling, full curve]",
Cc1cc(NC(=O)c2cc(-c3ccncc3)nc3ccccc23)ccc1Br,"7.31 µM [rising, partial curve, poor fit]",
Cc1cc(O)ccc1N/C=C1\CCCC1=O,"23.1 µM [falling, single point]",
CC(C)(C)c1ccc(C(=O)NCCC(=O)NCc2ccco2)cc1,"35.5 µM [falling, single point]","22.4 µM [rising, single point]"
CCc1ccccc1OCC(=O)Nc1ccc(F)c(S(=O)(=O)N2CCOCC2)c1,"1.84 µM [falling, partial curve, poor fit]",
C[C@@H]1CN([C@@H](C)CO)C(=O)c2cc(NS(=O)(=O)c3cccs3)ccc2O[C@H]1CN(C)Cc1ccc(C(F)(F)F)cc1,"6.51 µM [falling, single point]",
O=C(Cc1csc(N2CCOCC2)n1)N/N=C/c1ccc(F)cc1,"6.51 µM [falling, single point]",

# 2 compounds picked at random from those above, as already listed:
Compound,AC50 [1],AC50 [2]
O=C(Nc1nccs1)c1ccc(-c2ccc(Cl)cc2Cl)o1,,"3.66 µM [rising, full curve, poor fit]"
CC(C)=C1C2CCC1C(C(=O)NCCc1ccccc1)C2C(=O)O (centres undefined),"18.4 µM [rising, single point]",
